In paper PMC10548720:
No constants are given. Whether binding was seen depends on the method and setting. Binding seen in cells or lysates may run through a third protein. Some binding calls cover weakened binding; strength is not graded here. For some assays here: Sequences can lack the tags named with a protein.

Columns and labels:
[1] = target: Growth factor receptor binding protein-10 (Grb10), endogenous in 143B cells (human (endogenous in 143B)) (UniProt Q13322); experiment: co-IP; endogenous proteins in 143B cell lysate; IP lysate 50 mM Tris HCl, 1 mM EDTA, 150 mM NaCl; protein A/G beads and antibodies, 4 °C overnight; western blot
HA-tagged Grb10 = HA-tagged Grb10 (UniProt Q13322); experiment: co-IP; 293T cells transfected with flag-RILP and HA-Grb10 plasmids; IP lysate 50 mM Tris HCl, 1 mM EDTA, 150 mM NaCl; protein A/G beads and antibodies, 4 °C overnight; western blot

binding [1]	binding (HA-tagged Grb10)	Substance
binds		Rab-interacting lysosomal protein (RILP), endogenous in 143B cells (from UniProt Q96NA2 1-401)
	binds	flag-tagged RILP (from UniProt Q96NA2 1-401)
